Test system: C57BL/6 mice
Test: Acute antinociception, 50°C warm water tail withdrawal (WWTW)
Assay type: in vivo, mouse
Details: i.p., 32 mg/kg 12 or 10 mg/kg morphine, tested every 30 min
Method: The 50°C warm water tail withdrawal (WWTW) antinociception assay is a standard preclinical pain assay, in which clinical analgesics increase the latency of tail removal from the warm water (Figure 2A).
To compare the total antinociceptive activity over time, we determined the area under the curve (AUC) of each ligand’s time-course.
Acute antinociception: 50°C warm-water tail withdrawal test in C57BL/6 mice. […] A maximum cutoff time of 20 s was implemented to prevent tissue damage. […] Drug-stimulated antinociception was expressed as a percentage of maximum possible effect (% MPE), where % MPE = (drug latency—baseline latency)/(cutoff latency—baseline latency) × 100. The acute antinociception results were analyzed with a one-way ANOVA followed by a post hoc Dunnett test comparing the drug(s) to vehicle.

CN1CC[C@]23c4c5ccc(O)c4O[C@H]2[C@@H](O)C=C[C@H]3[C@H]1C5 [morphine, reference compound]
area under the curve (AUC) of antinociceptive time-course: 11,934 s*min
